{
  "sequences": {"note": "Protein sequences, listed by entry. Tags and fused reporters are not part of them. Lines headed by an entry give the natural chain unless they say otherwise; changes in a name come on top.", "UniProt P51450": "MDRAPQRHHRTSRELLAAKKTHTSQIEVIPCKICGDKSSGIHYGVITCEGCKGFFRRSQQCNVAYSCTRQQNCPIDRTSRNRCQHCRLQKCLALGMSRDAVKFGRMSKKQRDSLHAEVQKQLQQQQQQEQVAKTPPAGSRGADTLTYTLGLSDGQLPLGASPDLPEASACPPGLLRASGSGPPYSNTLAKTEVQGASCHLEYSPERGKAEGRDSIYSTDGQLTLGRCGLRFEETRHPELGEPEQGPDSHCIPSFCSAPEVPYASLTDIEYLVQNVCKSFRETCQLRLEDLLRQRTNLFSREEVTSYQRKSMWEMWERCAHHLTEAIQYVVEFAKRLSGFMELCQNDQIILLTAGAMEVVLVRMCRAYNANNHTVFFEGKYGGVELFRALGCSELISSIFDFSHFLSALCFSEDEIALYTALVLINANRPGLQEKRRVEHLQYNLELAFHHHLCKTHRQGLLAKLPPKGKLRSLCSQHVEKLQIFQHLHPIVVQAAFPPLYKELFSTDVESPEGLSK"},
  "source": "PubChem BioAssay AID2551",
  "about": "(National Center for Advancing Translational Sciences (NCATS), 2010)",
  "note": "Several values for one entry are separate records, joined by “and”; a condition that tells them apart may be missing. Equal entries are not always repeated. Screen size: about 310,000 compounds; about 17,000 (5.5%) were called active. The shares of active, inactive and inconclusive entries below differ from those in the screen. Calls come from the whole dose curve; as a rule, active = well fitted inhibition curve with a large enough effect; inconclusive = small, poorly fitted or top-dose-only effect, or effect the other way; inactive = no such curve, though single readings can be large or run the other way. A potency beside an inconclusive call is a rough fit, not a confirmed value. Where a SMILES comes first, the peptide text is derived from it. [ ]: non-standard residue; d: D form. The star is where a group is joined. ξ: configuration not given here. ξY = NC(Cc1ccc(O)cc1)C(=O)O; Cbz = O=C(OCc1ccccc1)*; OtBu = CC(C)(C)O*; tBu = CC(C)(C)*",
  "data": [
    {"target": "Nuclear receptor ROR-gamma (Mus musculus) (UniProt P51450)", "experiment": "qHTS for inhibitors of ROR gamma transcriptional activity; note: nearly all actives have a fitted effect of over 60% in size; note: potency is the fitted concentration of half-maximal effect; for activity change, negative = inhibition: % is set by controls: 0 for no effect and ±100 for the full control effect", "settings": "Drosophila S2 Gal4-RORgamma UAS-luciferase reporter, 20 h; activity change, negative = inhibition: at 53.6 µM (top of the series)", "procedure,_shortened": "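Drosophila S2 cells stably expressing Gal4-DBD/mouse RORγ fusion under metallothionein promoter plus UAS-luciferase; compound 1 h, then 700 uM CuSO4 induction for 20 h at ambient temperature; inhibition read as reduced luminescence.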", "values": [
      {"smiles": "NC(=O)c1c(NC(=O)CCCC(=O)O)sc2c1CCCCCC2", "Potency": "inconclusive: 25.1 µM [inhibitor, single point]"},
      {"smiles": "O=[N+]([O-])c1ccc(S(=O)(=O)Nc2ccc(-c3csc(-c4ccccc4)n3)cc2)cc1", "Potency": "inconclusive: 35.5 µM [inhibitor, single point]"},
      {"smiles": "Cc1ccc(C2=NN(C(=O)C3CCCO3)C(c3ccco3)C2)cc1", "note": "(stereo unspecified)", "activity change, negative = inhibition": "inactive: -0.717%"},
      {"smiles": "COc1cccc2cc(C(=O)NCCc3ccccc3)oc12", "Potency": "inconclusive: 17.8 µM [inhibitor, single point]"},
      {"smiles": "O=C1c2ccccc2-c2onc3ccc(Oc4ccccc4)c1c23", "Potency": "inconclusive: 2.51 µM [inhibitor, partial curve, poor fit]"},
      {"smiles": "COc1ccc(-c2cc(C(=O)NC(C)C)no2)cc1", "Potency": "inconclusive: 0.562 µM [activator, partial curve]"},
      {"smiles": "CN(C(=O)c1ccccc1)c1nc2ccccc2s1", "Potency": "inconclusive: 12.6 µM [inhibitor, single point]"},
      {"smiles": "Cc1nnc(N/N=C/c2ccccn2)[nH]c1=O", "activity change, negative = inhibition": "inactive: -33.5%"},
      {"smiles": "Cc1cc(NC(=O)CSc2ccc3nnc(-c4cccs4)n3n2)no1", "activity change, negative = inhibition": "inactive: -5.84%"},
      {"smiles": "CCOc1ccc(C(=O)NCC(=O)OCc2cc(C(C)=O)ccc2OC)cc1", "Potency": "inconclusive: 12.6 µM [activator, partial curve]"},
      {"smiles": "Cc1cc(NCCCn2ccnc2)n2nc(-c3ccc(Cl)cc3)cc2n1", "Potency": "inconclusive: 35.5 µM [inhibitor, single point]"},
      {"smiles": "CC(C)(C)c1ccc(S(=O)(=O)N2CCCC2C(=O)NC2=NCCS2)cc1", "note": "(stereo unspecified)", "Potency": "inconclusive: 35.5 µM [inhibitor, single point]"},
      {"smiles": "S=C(NCCc1ccccc1)N/N=C/c1ccccc1Cl", "Potency": "active: 11.2 µM"},
      {"smiles": "Cc1cccc(N(CC(=O)NC2CCCCC2)C(=O)CCCC(=O)Nc2ccccn2)c1C", "activity change, negative = inhibition": "inactive: 8.19%"},
      {"smiles": "CCOC(=S)SCC(=O)Nc1ncc(C)s1", "Potency": "inconclusive: 35.5 µM [inhibitor, single point]"},
      {"smiles": "C=CCn1c(COc2ccccc2F)nnc1SCC(=O)Nc1cc2oc3ccccc3c2cc1OC", "Potency": "inconclusive: 17.8 µM [activator, single point]"},
      {"smiles": "O=C(NN=C1CCN(Cc2ccccc2)CC1)c1cc2ccccc2cc1O", "activity change, negative = inhibition": "inactive: 4.12%"},
      {"smiles": "N=C1SCC(=O)N1c1ncc(Cc2cccc(Cl)c2)s1", "Potency": "active: 0.355 µM"},
      {"smiles": "Cc1ccc2nc(-c3ccc(NC(=O)COC(=O)c4ccc(=O)[nH]c4)cc3)sc2c1", "Potency": "active: 0.282 µM"},
      {"smiles": "CC(=O)c1sc(Nc2nc3ccc(F)cc3s2)nc1C", "Potency": "active: 3.16 µM"},
      {"smiles": "CCNC(=S)N/N=C(\\C)c1ccc2ccccc2c1OC(F)F", "Potency": "active: 1.26 µM"},
      {"smiles": "Oc1c(Cl)cc(Cl)c2cccnc12", "Potency": "active: 282 nM and active: 79.4 nM"},
      {"smiles": "CC(=O)C1=C(C)NC(SCC(N)=O)=C(C#N)C1c1ccco1", "note": "(stereo unspecified)", "Potency": "inconclusive: 0.224 µM [inhibitor, full curve, poor fit]"},
      {"smiles": "CCN(CC)S(=O)(=O)c1cccc(C(=O)N/N=C/c2ccccn2)c1", "Potency": "active: 8.91 µM"},
      {"smiles": "CC(C)(C)OC(=O)C(Cc1ccc(OC(C)(C)C)cc1)NC(=O)CNC(=O)OCc1ccccc1", "note": "(stereo not drawn) (Cbz-Gly-[ξY](tBu)-OtBu)", "Potency": "inconclusive: 35.5 µM [activator, single point]"},
      {"smiles": "CC(NC(=O)/C(C#N)=C/c1ccc(Cl)c([N+](=O)[O-])c1)c1ccccc1", "note": "(stereo unspecified)", "Potency": "inconclusive: 5.01 µM [inhibitor, single point]"},
      {"smiles": "CCc1ccc(NC(=O)CN2CCCN(S(=O)(=O)c3ccc(F)cc3)CC2)cc1", "Potency": "inconclusive: 3.98 µM [activator, single point]"},
      {"smiles": "CC1(C)C(=O)Nc2ccccc2N1C(=O)COC(=O)Cn1cnc2ccccc2c1=O", "Potency": "inconclusive: 17.8 µM [activator, single point]"},
      {"smiles": "CCN(CC)S(=O)(=O)c1ccc(C)c(N=C=S)c1", "activity change, negative = inhibition": "inactive: 19.1%"},
      {"smiles": "CCOc1cc(-c2cc(-c3ccc(NC(C)=O)cc3)nc(N)c2C#N)ccc1O", "Potency": "inconclusive: 1.78 µM [activator, partial curve, poor fit]"},
      {"smiles": "CN(C)c1nc(OCCNC(=O)COc2ccc(Cl)cc2Cl)nc(N(C)C)n1", "Potency": "inconclusive: 3.16 µM [inhibitor, single point]"},
      {"smiles": "Cc1ccc(C(=O)Nc2ccc3c(c2)OCCO3)o1", "Potency": "inconclusive: 31.6 µM [inhibitor, single point]"},
      {"smiles": "Cc1c(C(=O)OC/C(O)=C(\\C#N)c2nc3ccccc3[nH]2)oc2ccccc12", "Potency": "inconclusive: 14.1 µM [inhibitor, partial curve]"},
      {"smiles": "O=C(NCCN1CCOCC1)c1ccccc1Oc1ccccc1", "activity change, negative = inhibition": "inactive: 3.32%"},
      {"smiles": "O=C(Nc1nnc(-c2ccc3c(c2)OCCO3)o1)c1ccc(Cc2ccccc2)cc1", "Potency": "active: 5.62 µM"},
      {"smiles": "C[C@@H]1CC[C@H](O)/C=C/C(=O)O[C@H](C)CC[C@H](O)/C=C/C(=O)O1", "Potency": "inconclusive: 15.8 µM [inhibitor, single point]"},
      {"smiles": "COc1cc(Cl)c(C)cc1NC(=O)COC(=O)C(NS(=O)(=O)c1ccc(Cl)cc1)C(C)O", "note": "(stereo unspecified)", "Potency": "inconclusive: 31.6 µM [activator, single point]"},
      {"smiles": "CN(C)c1ccc(-c2nccc(NCc3cccs3)n2)cc1", "activity change, negative = inhibition": "inactive: -42.4%"},
      {"smiles": "COc1cccc(C(=O)Nc2nc3c(c(=O)[nH]2)CCCC3)c1", "Potency": "inconclusive: 8.91 µM [activator, partial curve]"},
      {"smiles": "O=S(=O)(Nc1ccc(Cc2ccncc2)cc1)c1ccc(Cl)s1", "Potency": "inconclusive: 12.6 µM [activator, single point]"},
      {"smiles": "O=C(Nc1ccc(OC(F)F)c(Cl)c1)[C@@H]1CCCN1C(=O)c1cccs1", "Potency": "inconclusive: 35.5 µM [activator, single point]"},
      {"smiles": "CCOC(=O)c1ccc(NC(=O)Nc2ncc(Cl)cc2Cl)cc1", "activity change, negative = inhibition": "inactive: 1.66%"},
      {"smiles": "Cc1ccc(Oc2nc(-c3ccccn3)nc3ccccc23)cc1", "Potency": "active: 0.251 µM"},
      {"smiles": "CN1CCC(OC(=O)c2ccc(Cl)cc2Cl)CC1", "activity change, negative = inhibition": "inactive: 0.565%"},
      {"smiles": "OC(CSc1c(Cl)cccc1Cl)CN1CCN(c2ccccc2F)CC1", "note": "(stereo unspecified)", "Potency": "inconclusive: 0.126 µM [activator, full curve]"},
      {"smiles": "COc1ccc(NC(=O)c2ccccc2NS(=O)(=O)c2ccc(C)cc2)c([N+](=O)[O-])c1", "Potency": "inconclusive: 12.6 µM [activator, single point]"}
    ]}
  ]
}
